Values quoted from earlier work as cited in patent US10010502B2, “Device that delivers a sustained low-dose of a myopia-suppressing drug, while preserving pupillary function and accommodation” (AMORPHEX THERAPEUTICS LLC, priority 2015, dated 2018).
At least one structure is not confirmed: it was looked up by name or label, or the drawing left a doubt.

Tested on: myopia progression

CC(C)C[C@H]1C(=O)N2CCC[C@H]2[C@]2(O)O[C@](NC(=O)[C@@H]3C=C4c5cccc6[nH]c(Br)c(c56)C[C@H]4N(C)C3)(C(C)C)C(=O)N12 [bromocriptine]
myopia progression in animal models: retard myopia progression
